Data reported in US20210283117A1, “PROPHYLACTIC OR THERAPEUTIC AGENT FOR PROSTATE CANCER” (KEIO UNIVERSITY, priority 2018, published 2021).

Legend:
[1] = system: LN-CaP cell lines; test: cells; settings: Homo sapiens, LNCaP, 48 h
[2] = system: C4-2AT6 cell lines; test: cells; settings: 48 h

- IC50 [1]: 12.1 µM
- IC50 [2]: 94.3 µM
Structure (SMILES): CNC(=O)c1ccc(N2C(=S)N(c3ccc(C#N)c(C(F)(F)F)c3)C(=O)C2(C)C)cc1F [enzalutamide]
